Test results published in publication PMC10163288.
This is one part of the list.

B1: il10ra_site1_sap_21_mot_HHH_b1_05326_000000242_0001_1_20_H_._HHH_b1_00201_af2_0001_0000500048_0000001_0_0001_af2pred_dldesign_0_af2pred (protein)
chain: SSSSSSNEEVVALLKEAAELRAEGKPEEAREVLEKALELAKKLGSQILIDQAEFLLADVLASSSS
B2: il10ra_site1_sap_19_mot_HHH_b1_02809_af2_000000277_0001_40_57_H_._HHH_b2_06042_0001_0000400042_0000001_0_0001 (protein)
chain: SSSSQETYELIKEAIKEVKELWESGNPEEAEELAEEVKKRLEELGDPLTARVFENAVRLSLSSSS
B3: il10ra_site1_normal_mot_HHH_b1_05326_000000242_0001_1_20_H_._HHH_b1_02800_0001_0000700021_0000002_0 (protein)
chain: SSSSDEEELEEILEIAVELFRLMLRGNPEEAERLLEELEEIAERHNDEVAEKLVEIIKESLSSSS
B4: il10ra_site1_normal_mot_HHH_b2_02287_000000121_0001_1_22_H_._HHH_b1_07128_af2_0001_0000200017_0000001_0 (protein)
chain: SSSSDERYEEVKRILQEVLELHRNGDHEEAERLLRELEEELEELGNDNALFVVEFLLRLVTSSSS
B5: il10ra_site1_normal_mot_HHH_b2_04251_af2_000000037_0001_42_56_H_._HHH_b1_07004_0001_0000500044_0000001_0 (protein)
chain: SSSSDQEELREEAKEVEEEIKEIPDPEERLKLLQELSRHAIELADPEVTRIVLELAEFIRNSSSS
B6: il10ra_site1_sap_19_mot_HHH_b2_00335_000000038_0001_43_57_H_._HHH_b1_03234_0001_0000400063_0000002_0_0001 (protein)
chain: SSSSEAVKRVAELLREASKLQNDGNPEEAERVAEEALEVAEEGNNPLLEWQARFLLHRIRNSSSS
B7: il10ra_site1_normal_mot_HHH_b2_01032_000000296_0001_1_18_H_._HHH_b1_04384_af2_0001_0000600026_0000001_1 (protein)
chain: SSSSSDEEEELLELSRQAFELALRGNPEEAREVLEEAERLARELGDERLLRLVEELLQALSSSSS
B8: il10ra_site1_sap_25_mot_HHH_b2_06752_000000207_0001_1_21_H_._HHH_b1_03800_0001_0000100019_0000002_0_0001 (protein)
chain: SSSSDVEEQVEELEEEIERLIEENDPEEALRLIMELVRLAFRNSDPETLRRAWELAKRLVSSSSS
B9: il10ra_site1_normal_mot_HHH_b1_08742_000000038_0001_1_20_H_._HHH_b2_07548_0001_0000400020_0000001_1_af2pred_0001 (protein)
chain: SSSSSDEEEEEVEELLEEAKHIEDSEERLKLIREAAKIAVEANDPELERLVREVSHEASSSSSSS
B10: il10ra_site1_sap_16_mot_HHH_b1_02997_000000220_0001_39_52_H_._HHH_b2_02100_0001_0000300036_0000001_0_0001_af2pred_0001 (protein)
chain: SSSSDEEEEEVKELLEEAEKIPDDREVARLLFRALRLAAELNDPELIRAVLKVAARLREGSSSSS
B11: il10ra_site1_normal_mot_HHH_b1_01821_000000158_0001_23_39_H_._HHH_b2_05355_0001_0000400025_0000001_0 (protein)
chain: SSSSDEEELEREVRELLEQAEETSDQEERVELALRALRLVFRNSDPELLQLIWEVFRRLASSSSS
B12: il10ra_site1_normal_mot_HHH_b1_01880_000000285_0001_23_39_H_._HHH_b1_04714_0001_0000200020_0000001_0_af2pred_0001 (protein)
chain: SSSSSRFEIAFRFLRHLAEALGDPELERLLEELLEEYEKEGDPKYLQEAAKLVLKRSRELSSSSS
B13: il10ra_site1_sap_25_mot_HHH_b2_00984_000000042_0001_1_20_H_._ems_p1-16H-GBL-16H-GABBL-15H_0053_0001_0001_0001_0001_0000400031_0000001_1_0001 (protein)
chain: SSSSDAAEFLVRQAIRVLRLLGDEEAVRRVEELLEEAEEKGDPELFHEAIHLAVELAQQDSSSSS
B14: il10ra_site1_normal_mot_HHH_b2_05984_000000071_0001_38_52_H_._HHH_b1_05086_0001_0000200011_0000001_0_af2pred_dldesign_0_af2pred (protein)
chain: SSSSNPAARAEAERLYEELKKLLKEGKKEEVQKLFQQLVKLALETECVYAAQLANELLKLLSSSS
B15: il10ra_site1_normal_mot_HHH_b1_05056_000000217_0001_1_20_H_._HHH_b2_06767_0001_0000300019_0000002_0 (protein)
chain: SSSSDEEELEELLEELKRLIEEGDKEEALKLVQRIIRLAFRLRDPEALQLLWELVRALANSSSSS
B16: il10ra_site1_sap_23_mot_HHH_b2_07873_af2_000000172_0001_1_19_H_._HHH_b2_07828_af2_0001_0000600031_0000001_0_0001 (protein)
chain: SSSSSSEEYEERVEELLERLEEVSPQEAYELLREAIELAAEANDHELFRLIMEALERFMRSSSSS
B17: il10ra_site1_normal_mot_HHH_b2_05323_000000159_0001_1_18_H_._HHH_b2_04323_af2_0001_0000600011_0000002_0 (protein)
chain: SSSSSEEKEEALELALRAFRLALRGNPEEAKELLERAAELAEELGDERLLRIIRDLLQALKSSSS
B18: il10ra_site1_normal_mot_HHH_b1_01821_000000158_0001_23_39_H_._HHH_b1_00069_af2_0001_0000200020_0000002_0 (protein)
chain: SSSSDEEERLKELLEELEEAVRRGDEELVSELALEAIRLAIRLSDEEALQEIWELFKEAISSSSS
B19: il10ra_site1_sap_18_mot_HHH_b2_02053_af2_000000006_0001_3_19_H_._HHH_b2_07330_0001_0000300019_0000001_0_0001 (protein)
chain: SSSSSEESEIALRFHEAMLRQAIELNNKEAFRSALRALRALAELYNDPEVEEVIRELEELFSSSS
B20: il10ra_site1_normal_mot_HHH_b1_06914_000000280_0001_1_18_H_._HHH_b1_02402_0001_0000100007_0000002_0 (protein)
chain: SSSSDLEEIYELSREAAELLAEGDDEEARRVVEEAEEIAERANNEVALFTLEYLLRQIERQSSSS
B21: il10ra_site1_sap_21_mot_HHH_b2_03220_af2_000000223_0001_23_40_H_._HHH_b2_06833_0001_0000300025_0000001_0_0001 (protein)
chain: SSSSSQEAYEILKEAIELIIELARRGNEEEAEKVFEEARELLEELGDRLAVWQLEFAFRRASSSS
B22: il10ra_site1_normal_mot_HHH_b1_00999_000000080_0001_41_55_H_._HHH_b1_02815_0001_0000300012_0000002_0 (protein)
chain: SSSSDEEEEESEELLKELKKLLEEGDQHRFLRLLQEIVRFAFRVSDEELLQAVWELAKKWGSSSS
B23: il10ra_site1_sap_21_mot_HHH_b1_08477_000000091_0001_40_57_H_._HHH_b2_03698_af2_0001_0000800004_0000001_0_0001 (protein)
chain: SSSSSSDRRRRIYELIHRAFEIDDEEEVRELLEEAKELAEEANDRLFLLQVEVVERAISSSSSSS
B24: il10ra_site1_sap_17_mot_65b8060e20531850bca9f2e11f97d954_0001_af2_000000137_0001_17_31_H_._HHH_b1_05533_0001_0000400016_0000002_0_0001 (protein)
chain: SSSSSDEEERQESERLLEELEELTDPEELMRVAREIIRLAFRLSDEELLQALWRLVKELSSSSSS
B25: il10ra_site1_sap_16_mot_HHH_b1_08411_af2_000000053_0001_1_20_H_._HHH_b1_01084_0001_0000400010_0000001_0_0001_af2pred_dldesign_0_af2pred (protein)
chain: SSSSSEAEALFAELEAAAAAGDEAAVRELSVRLHRLATERKDLELLKKAWDLLVDFYRKLSSSSS
B26: il10ra_site1_sap_16_mot_HHH_b2_07006_000000108_0001_1_19_H_._HHH_b2_01074_0001_0000400016_0000001_0_0001 (protein)
chain: SSSSDVEELLEEAEELLEKGNPREAARVLAEAVRLVFEEGDKELLQRIWELVQEVRRLAKSSSSS
B27: il10ra_site1_sap_18_mot_HHH_b1_07380_000000129_0001_1_20_H_._HHH_b1_07572_0001_0000100004_0000001_0_0001_af2pred_0001 (protein)
chain: SSSSSEVIHRALELMSKAFKLALEGNPEEAEKVLEEVEELARENNDERLRQLVEALERFLSSSSS
B28: il10ra_site1_normal_mot_HHH_b2_04646_000000019_0001_1_20_H_._ems_3hC_245_0002_0001_0000100001_0000001_0 (protein)
chain: SSDEEERVLDELLREFVKLFANAKSDEEVQEVAEEVIEEAEKANTEAAKIVIEAVRRILEDATSS
B29: il10ra_site1_normal_mot_HHH_b2_00475_000000107_0001_44_57_H_._HHH_b2_03520_0001_0000600038_0000001_0 (protein)
chain: SSSSDEEEVSHLLFRALELLFRGDKEEAEELVEEAKEIAEESNDPELQRYVEIAEHFVKAHSSSS
B30: il10ra_site1_sap_16_mot_HHH_b1_06789_af2_000000041_0001_1_20_H_._HHH_b2_00440_af2_0001_0000100003_0000002_0_0001 (protein)
chain: SSSSSDEEEEEVRELLEEAEKIEDPRERAEVLARALRVAWEGRNPELLRAVDEVAIKLYWSSSSS
B31: il10ra_site1_normal_mot_HHH_b1_03900_000000129_0001_1_16_H_._HHH_b1_01328_af2_0001_0000200004_0000002_0 (protein)
chain: SSSSDERKRRLYELIQRIARLLIRGNPEEAQELVEELRELAEELNDEAAKRAVEILEEAINSSSS
B32: il10ra_site1_normal_mot_HHH_b2_05532_000000217_0001_1_18_H_._HHH_b1_06601_0001_0000800040_0000001_0_af2pred_dldesign_0_af2pred (protein)
chain: SSSSDPEAALAEAKARMEALIAAGKYDEANQLATETARALAEAGHPELARELVRMMWEKLKSSSS
B33: il10ra_site1_sap_15_mot_8756ee2cf497b5429c717dfc0c0bcfd6_0001_000000186_0001_1_13_H_._HHH_b1_05891_af2_0001_0000400025_0000002_0_0001 (protein)
chain: SKVQRALRIAYQRSDPEVLRALWRLVQALYEDPNNEEAREVLELLIRALEEGDPEKVEEAVELAR
B34: il10ra_site1_normal_mot_HHH_b2_07521_000000141_0001_20_37_H_._HHH_b1_05590_0001_0000200020_0000001_1_af2pred_0001 (protein)
chain: SSSSSSEHVELSIRFAKFLLEEGDPEAAKIIIKAAVEIAEKDGDEELLEEARELLEEIESSSSSS
B35: il10ra_site1_sap_16_mot_HHH_b2_06497_000000202_0001_1_20_H_._HHH_b1_03926_0001_0000200018_0000001_0_0001_af2pred_0001 (protein)
chain: SSSSSEEELEELHELVRELLEKGDPEKAIEVLARLVRLAIELGDEEALERAYELARRAKGSSSSS
B36: il10ra_site1_normal_mot_HHH_b2_00730_000000084_0001_1_16_H_._HHH_b1_06912_0001_0000200009_0000001_0 (protein)
chain: SSSSSSYLELALRFIEALLESGDPEAARLLLKAAEEIARREGDEEVKEELERLKEEIEERSSSSS
B37: il10ra_site1_normal_mot_HHH_b2_00475_000000107_0001_44_57_H_._HHH_b1_06566_af2_0001_0000500037_0000001_0_af2pred_0001 (protein)
chain: SSSSSSEVAELLLEALELLAEGNPEEAEEVAREAEELARELGDEELLRAVEILKRFIELASSSSS

target: il10ra, Q13651; assay: yeast display titration

Apparent Kd, inactive:
B1 no binding seen
B2 no binding seen
B3 no binding seen
B4 no binding seen
B5 no binding seen
B6 no binding seen
B7 no binding seen
B8 no binding seen
B9 no binding seen
B10 no binding seen
B11 no binding seen
B12 no binding seen
B13 no binding seen
B14 no binding seen
B15 no binding seen
B16 no binding seen
B17 no binding seen
B18 no binding seen
B19 no binding seen
B20 no binding seen
B21 no binding seen
B22 no binding seen
B23 no binding seen
B24 no binding seen
B25 no binding seen
B26 no binding seen
B27 no binding seen
B28 no binding seen
B29 no binding seen
B30 no binding seen
B31 no binding seen
B32 no binding seen
B33 no binding seen
B34 no binding seen
B35 no binding seen
B36 no binding seen
B37 no binding seen

Pulled one by one from the list above, 2 records:
Apparent Kd, inactive:
B9 no binding seen
B26 no binding seen
